The target of assay [1] is HA-tagged wild-type Depdc5 (human) (UniProt O75140). Description: co-IP; HA-tagged Depdc5 stably expressed in Depdc5-knockout HEK-293T; cells lysed in Triton lysis buffer (1% Triton); immunoprecipitate blotted for Nprl2 and Nprl3.
The target of assay [2] is HA-tagged Depdc5(R1407D) (human) (UniProt O75140). The description is as above.

Protein sequences, listed by entry. Tags and fused reporters are not part of them. Lines headed by an entry give the natural chain unless they say otherwise; changes in a name come on top.
UniProt O75140: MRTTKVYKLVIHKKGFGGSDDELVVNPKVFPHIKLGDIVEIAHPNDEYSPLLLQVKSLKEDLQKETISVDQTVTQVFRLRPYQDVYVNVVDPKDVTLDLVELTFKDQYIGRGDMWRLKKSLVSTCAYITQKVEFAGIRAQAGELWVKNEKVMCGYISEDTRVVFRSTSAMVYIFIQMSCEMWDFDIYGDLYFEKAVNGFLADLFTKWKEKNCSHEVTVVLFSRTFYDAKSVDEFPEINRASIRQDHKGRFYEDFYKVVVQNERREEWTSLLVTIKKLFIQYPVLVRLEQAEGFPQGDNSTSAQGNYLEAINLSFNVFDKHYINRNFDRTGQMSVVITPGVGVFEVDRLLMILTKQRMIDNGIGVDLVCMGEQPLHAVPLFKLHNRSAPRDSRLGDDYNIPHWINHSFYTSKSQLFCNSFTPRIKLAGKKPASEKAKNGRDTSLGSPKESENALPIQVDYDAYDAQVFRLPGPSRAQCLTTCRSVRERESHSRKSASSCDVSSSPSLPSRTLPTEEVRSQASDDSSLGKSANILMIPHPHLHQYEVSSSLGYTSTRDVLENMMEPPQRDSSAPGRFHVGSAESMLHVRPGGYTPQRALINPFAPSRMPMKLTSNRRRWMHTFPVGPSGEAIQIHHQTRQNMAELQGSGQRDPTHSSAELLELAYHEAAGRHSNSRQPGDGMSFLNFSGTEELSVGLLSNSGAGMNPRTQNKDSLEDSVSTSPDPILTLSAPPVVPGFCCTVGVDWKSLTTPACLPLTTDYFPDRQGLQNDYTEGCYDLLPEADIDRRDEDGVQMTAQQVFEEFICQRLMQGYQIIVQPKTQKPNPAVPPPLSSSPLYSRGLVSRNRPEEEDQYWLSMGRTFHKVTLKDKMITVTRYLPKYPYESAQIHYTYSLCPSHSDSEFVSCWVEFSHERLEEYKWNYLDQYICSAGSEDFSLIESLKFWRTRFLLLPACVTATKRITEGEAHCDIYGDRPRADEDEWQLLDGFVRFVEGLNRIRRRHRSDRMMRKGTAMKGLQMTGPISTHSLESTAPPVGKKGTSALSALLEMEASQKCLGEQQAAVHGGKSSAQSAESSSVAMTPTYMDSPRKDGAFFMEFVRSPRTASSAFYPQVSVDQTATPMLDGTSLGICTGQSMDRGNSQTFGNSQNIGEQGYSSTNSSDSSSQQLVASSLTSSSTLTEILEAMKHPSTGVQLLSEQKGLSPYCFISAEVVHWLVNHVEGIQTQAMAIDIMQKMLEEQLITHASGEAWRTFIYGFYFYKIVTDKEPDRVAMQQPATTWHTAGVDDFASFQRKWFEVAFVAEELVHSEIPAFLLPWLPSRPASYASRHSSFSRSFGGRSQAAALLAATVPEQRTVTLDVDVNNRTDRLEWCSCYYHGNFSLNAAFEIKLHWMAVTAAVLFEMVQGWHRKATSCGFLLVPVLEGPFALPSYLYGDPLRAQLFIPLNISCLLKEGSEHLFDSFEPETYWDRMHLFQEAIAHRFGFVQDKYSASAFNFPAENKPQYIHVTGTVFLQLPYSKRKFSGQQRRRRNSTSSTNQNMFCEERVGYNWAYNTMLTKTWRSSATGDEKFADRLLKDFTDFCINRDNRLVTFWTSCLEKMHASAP

From paper PMC10316081 come the findings set out here.

No constants are given. Whether binding was seen depends on the method and setting. In cells and extracts the contact can be indirect. Some entries that bind do so weakly or less than the wild type.

B1: Nprl3 (endogenous) (protein, UniProt Q12980 1-569)
chain: MRDNTSPISVILVSSGSRGNKLLFRYPFQRSQEHPASQTSKPRSRYAASNTGDHADEQDGDSRFSDVILATILATKSEMCGQKFELKIDNVRFVGHPTLLQHALGQISKTDPSPKREAPTMILFNVVFALRANADPSVINCLHNLSRRIATVLQHEERRCQYLTREAKLILALQDEVSAMADGNEGPQSPFHHILPKCKLARDLKEAYDSLCTSGVVRLHINSWLEVSFCLPHKIHYAASSLIPPEAIERSLKAIRPYHALLLLSDEKSLLGELPIDCSPALVRVIKTTSAVKNLQQLAQDADLALLQVFQLAAHLVYWGKAIIIYPLCENNVYMLSPNASVCLYSPLAEQFSHQFPSHDLPSVLAKFSLPVSLSEFRNPLAPAVQETQLIQMVVWMLQRRLLIQLHTYVCLMASPSEEEPRPREDDVPFTARVGGRSLSTPNALSFGSPTSSDDMTLTSPSMDNSSAELLPSGDSPLNQRMTENLLASLSEHERAAILSVPAAQNPEDLRMFARLLHYFRGRHHLEEIMYNENTRRSQLLMLFDKFRSVLVVTTHEDPVIAVFQALLP
With B1, the binding entry in assay [1] and in assay [2] was “binds” each time.

B2: Nprl2 (endogenous) (protein, UniProt Q8WTW4 1-380)
chain: MGSGCRIECIFFSEFHPTLGPKITYQVPEDFISRELFDTVQVYIITKPELQNKLITVTAMEKKLIGCPVCIEHKKYSRNALLFNLGFVCDAQAKTCALEPIVKKLAGYLTTLELESSFVSMEESKQKLVPIMTILLEELNASGRCTLPIDESNTIHLKVIEQRPDPPVAQEYDVPVFTKDKEDFFNSQWDLTTQQILPYIDGFRHIQKISAEADVELNLVRIAIQNLLYYGVVTLVSILQYSNVYCPTPKVQDLVDDKSLQEACLSYVTKQGHKRASLRDVFQLYCSLSPGTTVRDLIGRHPQQLQHVDERKLIQFGLMKNLIRRLQKYPVRVTREEQSHPARLYTGCHSYDEICCKTGMSYHELDERLENDPNIIICWK
Consider B2, for which the binding entry in assay [1] and in assay [2] was “binds” each time.
